Some of the results follow. These are further read-outs of the screen, such as a control signal, another cell line or another target. No call is given for them. Most of these compounds were active or inconclusive in the main read-out, so they are no random draw. Words in brackets tell the shape of the fitted curve; partial curves, single points and poor fits give uncertain potencies. Where a SMILES comes first, the peptide text is derived from it. The star is where a group is joined. OBn = c1ccc(CO*)cc1
Experiment: qHTS Assay for Lipid Storage Modulators in Drosophila S3 Cells;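 as to cell number change: cells counted by Cell Tracker Red CMTPX staining in the red channel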
Conditions: BODIPY lipid droplet fluorescence, 18-24 h; for cell number change: measured here: cell count max response, cells fed with added oleic acid
Method in brief: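 Drosophila S3 cells got compounds at several concentrations plus oleic acid (400 uM solution). Laser-scanning cytometry with 488 nm excitation read lipid droplets at 500-530 nm and cells at 575-640 nm. Percent activity was relative to 20 uM Triacsin C.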

[1] = measured here: lipid fluorescence (Fed channel) AC50, cells fed with added oleic acid
[2] = measured here: cell number channel AC50, cells fed with added oleic acid

| Compound | cell number change [%] | AC50 [1] | AC50 [2] |
| --- | --- | --- | --- |
| CCc1nnc(NC(=O)C2=CCN(S(=O)(=O)c3ccccc3)CC2)s1 | -13.8 | 29.1 µM [falling, single point] |  |
| CSc1nc(C)c2c(n1)N(c1ccc(C(C)C)cc1)CC2 | -9.96 | 29.1 µM [falling, single point] |  |
| S=C(NCCc1ccc(Cl)cc1)NC1CCCC1 | -21.5 | 9.2 µM [falling, partial curve] |  |
| CCC(=O)n1nc(NCc2ccccc2OC)nc1NCc1ccccc1OC | -13.4 |  |  |
| Cn1c(SCC(=O)Nc2ccc3cn[nH]c3c2)nnc1-c1cccs1 | -1.84 | 0.082 µM [falling, full curve, poor fit] |  |
| CN1CC(=O)N(C)c2ncn(Cc3ccccc3)c2C1=O | -54.6 | 20.6 µM [falling, single point] | 4.11 µM [falling, full curve, poor fit] |
| CC(=O)OC1c2ccccc2C(=O)N1Cc1ccccc1 (stereo unspecified) | 20.8 | 32.6 µM [rising, single point] |  |
| COc1ccccc1C(N)=S | 3.15 | 4.11 µM [falling, full curve] |  |
| O=C(NCCc1ccccc1)c1ccc2c(c1)S(=O)(=O)N=C1CCCCCN12 | 10.6 |  |  |
| CC(Sc1nnnn1C)C(=O)Nc1cc(S(=O)(=O)N2CCCCC2)ccc1Cl (stereo unspecified) | -8 | 2.59 µM [falling, partial curve] |  |
| CC1=NN(c2ccccc2)C(=O)/C1=C/C=C/c1ccccc1 | -79.3 | 4.61 µM [falling, full curve] | 20.6 µM [falling, partial curve] |
| Cc1cc(C)c(NC(=O)CS(=O)CC(=O)N2CCN(c3ccccc3)CC2)c(C)c1 (stereo unspecified) | 49.1 | 0.82 µM [rising, single point] | 3.66 µM [rising, partial curve] |
| COC(=O)c1ccc(NC(=O)CSc2nncn2-c2cccnc2)cc1 | -16.7 |  |  |
| CCCCN(CC)Cc1ccc(CNC(=S)Nc2ccc(C)cc2Cl)o1 | -53.5 |  | 29.1 µM [falling, partial curve, poor fit] |
| Cc1ccc(Cn2nnc3c(=O)n(Cc4cccc(C)c4)cnc32)cc1 |  | 1.84 µM [rising, partial curve] |  |
| O=C(Nc1ccccc1C(=O)N1CCOCC1)c1ccc(F)cc1 | -85.5 | 5.17 µM [falling, partial curve, poor fit] | 14.6 µM [falling, partial curve, poor fit] |
| CC(=O)c1ccc(S(=O)(=O)Nc2cc3c(cc2C(C)=O)OCO3)cc1 |  | 2.91 µM [rising, single point] | 2.91 µM [falling, single point] |
| COc1cc(NC(=O)c2ccc(S(=O)(=O)N(C)C)cc2)cc(OC)c1OC | -12.8 | 0.58 µM [falling, full curve, poor fit] |  |
| COc1ccc(C2Nc3ccccc3C(=O)N2c2ccc(Cl)cc2)cc1Cn1cc([N+](=O)[O-])cn1 (stereo unspecified) | 6.48 | 16.4 µM [rising, partial curve, poor fit] |  |

| Compound | cell number change [%] | AC50 [1] | AC50 [2] |
| --- | --- | --- | --- |
| CCc1nc(Nc2ccc3c(c2)OCCO3)c2oc3ccccc3c2n1 |  | 2.06 µM [rising, partial curve] | 0.411 µM [rising, full curve] |
| O=C(c1ccco1)N1CCN(C(=O)C2CCCN(S(=O)(=O)c3cccc4nsnc34)C2)CC1 (stereo unspecified) |  |  | 6.51 µM [rising, single point] |
| O=C(NCCC(=O)N1CCCC(C(F)(F)F)C1)c1ccc(Br)cc1 (stereo unspecified) |  | 5.17 µM [rising, single point] | 6.51 µM [rising, single point] |
| O=C(Nc1ccc(F)cc1)c1ccc(S(=O)(=O)N2CCCC2)cc1 | -10.5 | 35.5 µM [rising, single point] |  |
| Cc1cc(C)c2nc(N3CCC(C(=O)N4CCN(c5ncccn5)CC4)CC3)sc2c1 |  |  | 6.51 µM [rising, single point] |
| CCc1nn(CC(=O)NCCCc2ccccc2)c(=O)c2cc3c(OC)cccc3n12 | 14 |  |  |
| CN1/C(=C\C(=O)C[n+]2ccc3ccccc3c2)C(C)(C)c2ccccc21 |  | 29.1 µM [falling, single point] | 6.51 µM [rising, single point] |
| Cc1cc(C(=O)N/N=C2\CCCC(=O)C2)c2ccccc2n1 | -14.5 | 0.00517 µM [falling, full curve, poor fit] |  |
| CO[C@H]1C=CO[C@@]2(C)Oc3c(C)c(O)c4c(O)c(c(C=NN5CCN(C)CC5)c(O)c4c3C2=O)NC(=O)C(C)=CC=C[C@H](C)[C@H](O)[C@@H](C)[C@@H](O)[C@@H](C)[C@H](OC(C)=O)[C@@H]1C | -34 | 23.1 µM [falling, single point] | 16.4 µM [falling, single point] |
| CCN(CCO)Cc1csc2ccc(Cl)cc12 | -28.8 | 1.46 µM [falling, full curve] |  |
| Cc1cc(C)n(CCNC(=O)c2ccc3c(c2)OCO3)n1 | 3.85 |  |  |
| O=C(CNCc1cccs1)NC12CC3CC(CC(C3)C1)C2 | 65 |  | 0.13 µM [falling, full curve, poor fit] |
| Cc1cc(OCC(=O)N2CCN(c3cccc(Cl)c3)CC2)c2c(C)c(C)c(=O)oc2c1 | 12.5 | 10.3 µM [rising, partial curve] |  |
| COc1ccc([N+](=O)[O-])cc1NC(=O)c1ccc(C)o1 |  | 1.03 µM [rising, partial curve] |  |
| N#Cc1ccc(NC(=O)c2cc(=O)c3ccccc3o2)cc1 | -21.8 | 29.1 µM [falling, single point] |  |
| COc1cc(OC)cc(-c2nc(-c3cccs3)no2)c1 | -9.93 | 0.146 µM [falling, full curve, poor fit] | 0.259 µM [falling, full curve, poor fit] |
| O=C(CCCl)Nc1cc(SCCO)cc([N+](=O)[O-])c1 | -2.23 | 0.731 µM [falling, partial curve, poor fit] |  |
| Cc1ccc(C(=O)Nc2nnc(S(=O)(=O)N3CCN(c4ccc(F)cc4)CC3)s2)cc1 | -17.7 |  |  |
| CC(=O)NCCC(=O)Nc1nc(-c2c[nH]c3ccccc23)cs1 |  | 11.6 µM [falling, partial curve] |  |

| Compound | cell number change [%] | AC50 [1] | AC50 [2] |
| --- | --- | --- | --- |
| COc1cc(C)c(Cl)c(C)c1S(=O)(=O)NC1CC(C)(C)NC(C)(C)C1 | -16.9 | 0.366 µM [falling, partial curve, poor fit] |  |
| O=C(COC(=O)Cc1ccc(Cl)cc1)NCCc1ccccc1 | -7.36 | 0.00461 µM [falling, full curve, poor fit] |  |
| C/C=C/C(O)c1ccc2ccccc2c1 (stereo unspecified) | 19.4 | 29.1 µM [rising, single point] |  |
| CC1(C2CC2)NC(=O)N(CC(=O)Nc2ccccc2F)C1=O (stereo unspecified) | -23.9 | 6.51 µM [rising, single point] |  |
| O=C(O)c1ccc(-c2nc(-c3ccccc3Cl)cs2)cc1 | -6.37 | 2.06 µM [falling, partial curve] | 6.51 µM [falling, single point] |
| O=C(c1ccco1)N1CCN(S(=O)(=O)c2c(Cl)cccc2Cl)CC1 | 16.7 | 29.1 µM [rising, single point] |  |
| COc1ccc(N(CC(=O)N/N=C/c2ccc(C(=O)O)cc2)S(=O)(=O)c2ccc(NC(C)=O)cc2)cc1 | 36.2 | 0.58 µM [rising, single point] | 0.231 µM [rising, full curve, poor fit] |
| CCCCN1CC(O)=C(c2nc3ccccc3s2)C1=N | 11 |  | 0.00517 µM [rising, full curve, poor fit] |
| CC(C)(C)C1(O)CC(C(F)(F)F)=NN1C(=O)CCc1ccccc1 (stereo unspecified) | -14 | 10.3 µM [falling, partial curve, poor fit] |  |
| Cc1ccc(C2(C)NC(=O)N(CC(=O)Nc3cccnc3Cl)C2=O)cc1 (stereo unspecified) | -31.6 |  | 0.517 µM [falling, full curve] |
| OC(CNCCc1ccc(Cl)cc1)COc1cc(Cl)ccc1Cl (stereo unspecified) | -69.3 |  | 20.6 µM [falling, single point] |
| CC(C)CC1NC(=O)N(CC(=O)Nc2ccc(-c3ccccc3)cc2)C1=O (stereo unspecified) | 7.77 | 0.731 µM [falling, partial curve, poor fit] |  |
| O=C(CCSCCc1ccccn1)Nc1ccc(Br)cc1F | 8.93 | 0.82 µM [falling, partial curve, poor fit] |  |
| CC(NCc1ccc(S(N)(=O)=O)cc1)C(=O)Nc1ccc([N+](=O)[O-])cc1Cl (stereo unspecified) | 7.69 |  |  |
| CCOCc1nnc(NC(=O)C2CCN(C(=O)C3CC(=O)N(c4ccc(C)cc4)C3)CC2)s1 (stereo unspecified) | 30.8 | 5.17 µM [falling, single point] | 0.517 µM [rising, full curve, poor fit] |
| CC(/C=N/NC(=O)c1cc(C2CC2)[nH]n1)=C\c1ccccc1 | 20.9 | 1.46 µM [rising, partial curve] | 0.231 µM [rising, full curve] |
| COC(=O)c1c(NC(=O)COc2ccc(Cl)cc2Cl)sc2c1CC(C)(C)NC2(C)C | 10.8 | 0.731 µM [rising, full curve, poor fit] |  |
| CCC(C)C(N)C(=O)NC(CCC(=O)OCc1ccccc1)C(N)=O (stereo unspecified) (H-Ile-Glu(OBn)-NH2; configuration not given here) | 5.8 |  |  |
| Nn1c(SCC(=O)NCCC2=CCCCC2)nnc1-c1cccnc1 | 45 |  | 11.6 µM [rising, single point] |

13 entries already listed, arranged by molecular weight, ascending.

| Compound | cell number change [%] | AC50 [1] | AC50 [2] |
| --- | --- | --- | --- |
| C/C=C/C(O)c1ccc2ccccc2c1 (stereo unspecified) | 19.4 | 29.1 µM [rising, single point] |  |
| CCCCN1CC(O)=C(c2nc3ccccc3s2)C1=N | 11 |  | 0.00517 µM [rising, full curve, poor fit] |
| CC(/C=N/NC(=O)c1cc(C2CC2)[nH]n1)=C\c1ccccc1 | 20.9 | 1.46 µM [rising, partial curve] | 0.231 µM [rising, full curve] |
| CC1(C2CC2)NC(=O)N(CC(=O)Nc2ccccc2F)C1=O (stereo unspecified) | -23.9 | 6.51 µM [rising, single point] |  |
| O=C(O)c1ccc(-c2nc(-c3ccccc3Cl)cs2)cc1 | -6.37 | 2.06 µM [falling, partial curve] | 6.51 µM [falling, single point] |
| O=C(COC(=O)Cc1ccc(Cl)cc1)NCCc1ccccc1 | -7.36 | 0.00461 µM [falling, full curve, poor fit] |  |
| Nn1c(SCC(=O)NCCC2=CCCCC2)nnc1-c1cccnc1 | 45 |  | 11.6 µM [rising, single point] |
| CC(C)CC1NC(=O)N(CC(=O)Nc2ccc(-c3ccccc3)cc2)C1=O (stereo unspecified) | 7.77 | 0.731 µM [falling, partial curve, poor fit] |  |
| O=C(CCSCCc1ccccn1)Nc1ccc(Br)cc1F | 8.93 | 0.82 µM [falling, partial curve, poor fit] |  |
| O=C(c1ccco1)N1CCN(S(=O)(=O)c2c(Cl)cccc2Cl)CC1 | 16.7 | 29.1 µM [rising, single point] |  |
| COC(=O)c1c(NC(=O)COc2ccc(Cl)cc2Cl)sc2c1CC(C)(C)NC2(C)C | 10.8 | 0.731 µM [rising, full curve, poor fit] |  |
| CCOCc1nnc(NC(=O)C2CCN(C(=O)C3CC(=O)N(c4ccc(C)cc4)C3)CC2)s1 (stereo unspecified) | 30.8 | 5.17 µM [falling, single point] | 0.517 µM [rising, full curve, poor fit] |
| COc1ccc(N(CC(=O)N/N=C/c2ccc(C(=O)O)cc2)S(=O)(=O)c2ccc(NC(C)=O)cc2)cc1 | 36.2 | 0.58 µM [rising, single point] | 0.231 µM [rising, full curve, poor fit] |
